US20050137135A1 (priority 2002, published 2005)
Not every detail of the peptide structures is certain; ends, links or a residue may be inferred. Ends that are not written are not given here.

Biological target: T1, rat pancreatic islet (wild type) GIP-receptor (Rattus norvegicus, UniProt P43219)
T1 construct: expressed in transfected cells; host or cells: CHO-K1 (Chinese hamster ovary)
T1 sequence (P43219 19-455): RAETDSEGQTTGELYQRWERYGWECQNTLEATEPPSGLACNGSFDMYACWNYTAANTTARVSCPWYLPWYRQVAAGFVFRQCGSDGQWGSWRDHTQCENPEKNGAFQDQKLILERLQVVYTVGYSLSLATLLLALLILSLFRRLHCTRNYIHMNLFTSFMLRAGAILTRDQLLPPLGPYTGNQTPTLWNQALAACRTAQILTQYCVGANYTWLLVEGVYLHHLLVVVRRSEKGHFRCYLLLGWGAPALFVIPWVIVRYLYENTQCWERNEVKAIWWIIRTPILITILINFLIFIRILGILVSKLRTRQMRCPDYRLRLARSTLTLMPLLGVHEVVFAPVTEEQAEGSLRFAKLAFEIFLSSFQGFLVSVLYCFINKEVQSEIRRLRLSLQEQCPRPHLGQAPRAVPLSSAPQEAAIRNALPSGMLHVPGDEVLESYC
Experiment: cAMP production in CHO-K1 cells expressing the GIP-receptor (wtGIP-R1 cells)
Type: cell-based
Settings: basal cyclic AMP = 2.737 ± 0.079 fmol/1000 cells; for cAMP Production (Fold Basal) 10 μM: 10 μM peptide; for cAMP Production (Fold Basal) 20 μM: 20 μM peptide
Protocol: Cells were cultured in DMEM/F12, supplemented with 10% newborn calf serum, 50 units/ml penicillin G, and 50 μg/ml streptomycin (Culture media and antibiotics from Gibco BRL, Life Technologies). Cells were grown in 75 cm^2 flasks until 80-90% confluent, when they were split and seeded onto 24 well plates at a density of 50,000 cells/well. Experiments were carried out 48 h later.
Cells were extracted with 70% ethanol and cAMP levels measured by radioimmunoassay (Biomedical Technologies, Stoughton, Mass.). Data are expressed as fmol/1000 cells or % maximal GIP1-42-stimulated cAMP production (inhibition experiments).

| Compound | cAMP Production (Fold Basal) 10 μM [Fold Basal] | cAMP Production (Fold Basal) 20 μM [Fold Basal] |
| --- | --- | --- |
| CC[C@H](C)[C@H](NC(=O)[C@H](CO)NC(=O)[C@H](Cc1ccc(O)cc1)NC(=O)[C@H](CC(=O)O)NC(=O)[C@H](CO)NC(=O)[C@@H](NC(=O)[C@H](Cc1ccccc1)NC(=O)[C@@H](NC(=O)CNC(=O)[C@H](CCC(=O)O)NC(=O)[C@H](C)NC(=O)[C@@H](N)Cc1ccc(O)cc1)[C@@H](C)O)[C@@H](C)CC)C(=O)N[C@@H](C)C(=O)O [GIP1-13] | 1.03 ± 0.06 | 1.15 ± 0.07 |
| DKIRQQDFVNWLLAQK-NH2 [GIP15-30a] | 1.24 ± 0.28 | 1.01 ± 0.11 |
| CC[C@H](C)[C@H](N)C(=O)N[C@@H](CCCNC(=N)N)C(=O)N[C@@H](CCC(N)=O)C(=O)N[C@@H](CCC(N)=O)C(=O)N[C@@H](CC(=O)O)C(=O)N[C@@H](Cc1ccccc1)C(=O)N[C@H](C(=O)N[C@@H](CC(N)=O)C(=O)N[C@@H](Cc1c[nH]c2ccccc12)C(=O)N[C@@H](CC(C)C)C(=O)N[C@@H](CC(C)C)C(=O)N[C@@H](C)C(=O)N[C@@H](CCC(N)=O)C(=O)N[C@@H](CCCCN)C(N)=O)C(C)C [GIP17-30a] | 1.13 ± 0.09 | 1.12 ± 0.05 |
| CC[C@H](C)[C@H](NC(=O)[C@H](CO)NC(=O)[C@H](Cc1ccc(O)cc1)NC(=O)[C@H](CC(=O)O)NC(=O)[C@H](CO)NC(=O)[C@@H](NC(=O)[C@H](Cc1ccccc1)NC(=O)[C@@H](NC(=O)CNC(=O)[C@H](CCC(=O)O)NC(=O)[C@H](C)NC(=O)[C@@H](N)Cc1ccc(O)cc1)[C@@H](C)O)[C@@H](C)CC)C(=O)N[C@@H](C)C(=O)N[C@@H](CCSC)C(=O)N[C@@H](CC(=O)O)C(=O)O [GIP1-15] | 0.97 ± 0.06 | 0.91 ± 0.05 |
